# Measured values published in PubChem BioAssay (NCATS).
# Chains of the proteins cited; added tags and fusions are not shown.
# UniProt P09958, whole entry, looked up: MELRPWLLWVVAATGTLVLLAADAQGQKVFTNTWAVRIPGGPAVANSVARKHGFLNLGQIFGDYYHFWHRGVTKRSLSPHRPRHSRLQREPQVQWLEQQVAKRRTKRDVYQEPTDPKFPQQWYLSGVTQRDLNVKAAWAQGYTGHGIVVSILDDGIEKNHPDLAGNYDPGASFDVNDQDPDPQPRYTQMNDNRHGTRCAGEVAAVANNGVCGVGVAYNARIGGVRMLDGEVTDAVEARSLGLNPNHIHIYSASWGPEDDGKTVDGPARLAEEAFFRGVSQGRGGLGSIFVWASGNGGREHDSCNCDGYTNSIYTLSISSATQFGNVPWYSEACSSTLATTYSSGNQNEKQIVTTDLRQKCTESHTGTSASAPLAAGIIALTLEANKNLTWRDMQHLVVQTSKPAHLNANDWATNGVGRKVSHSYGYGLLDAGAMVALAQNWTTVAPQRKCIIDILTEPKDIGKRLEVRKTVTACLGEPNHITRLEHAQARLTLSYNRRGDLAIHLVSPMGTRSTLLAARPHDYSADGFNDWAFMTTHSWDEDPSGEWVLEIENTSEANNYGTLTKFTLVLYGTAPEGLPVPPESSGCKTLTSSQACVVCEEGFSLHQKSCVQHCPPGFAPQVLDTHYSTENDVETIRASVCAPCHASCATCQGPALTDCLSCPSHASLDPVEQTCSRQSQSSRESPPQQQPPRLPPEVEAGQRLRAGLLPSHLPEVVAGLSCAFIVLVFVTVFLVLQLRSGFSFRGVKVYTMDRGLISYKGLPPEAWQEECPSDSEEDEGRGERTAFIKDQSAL
# Inconclusive results, whose numbers are uncertain, are shown with a selection of clear calls. Where the call is inconclusive, the potency comes from a doubtful curve fit. Calls of active or inactive are those of the source. The call rests on the fitted dose curve.
# Biological target: Furin (Homo sapiens) (UniProt P09958)
# Assay: Selectivity profile for inhibitors of NSP2Pro chikungunya virus (CHIKV): Human furin counterscreen (AID 1964102)
# Settings: Recombinant human furin enzymatic counterscreen, fluorogenic substrate; series mostly up to 50.6 µM
# Potency means the concentration at half of the fitted maximal effect.
row,SMILES,Potency
1,O=c1oc2c3c(ccc2c2ccccc12)OCN(Cc1ccccc1Cl)C3,inactive
2,Cc1nc(-c2ccccc2Br)cc([C@H]2CN3CC[C@H]2C[C@@H]3CNC(=O)NC2CCCCC2)n1,"inconclusive: 16.3 µM [inhibitor, partial curve]"
3,C1Cc2[nH]nc(-c3nn[nH]n3)c2C1,"inconclusive: 23.1 µM [inhibitor, partial curve, poor fit]"
4,O=c1oc2c3c(ccc2c2ccccc12)OCN(Cc1ccc(Cl)cc1)C3,"inconclusive: 6.51 µM [inhibitor, partial curve, poor fit]"
5,c1c2c(cc3c1OCO3)-c1cc3ccc4c(c3c[n+]1CC2)OCO4,active: 4.11 µM

# Tested on: Hepatitis C virus NS3/4A protease
# Assay: Selectivity profile for inhibitors of NSP2Pro chikungunya virus (CHIKV): NS34A-HCV Counterscreen (AID 1964106); further: nearly all actives have a fitted effect of over 55% in size
# Settings: HCV NS3/4A protease biochemical counterscreen; series mostly up to 50.9 µM
row,SMILES,Potency
1,CCCCNC(=O)CN1CCN(c2ccc(NC(=O)c3ccc(OC)cc3)cc2C(=O)O)CC1,active: 1.83 µM
2,Cn1nnnc1Sc1ncnc2scc(I)c12,"inconclusive: 20.6 µM [inhibitor, partial curve]"
3,C=C1C(=O)O[C@H]2C1[C@H](OC(=O)/C(=C/CO)COC(=O)/C(C)=C/CO)CC(=C)[C@@H]1CC(=O)[C@@H](C)[C@@H]12 (some centres undefined),"inconclusive: 4.49 µM [inhibitor, full curve]"
4,OCc1ccc(-c2ccc3ncnc(NCc4nccs4)c3c2)o1,active: 3.66 µM
5,COc1ccc(CNC(=O)c2nc(S(=O)(=O)Cc3ccccc3)ncc2Cl)cc1,"inconclusive: 9.19 µM [inhibitor, partial curve, poor fit]"
6,CC(C)(C)OC(=O)N1CCN(c2ccc(NCc3ccc4c(c3)OCO4)cc2)CC1,inactive
7,Cn1nnnc1Sc1ncnc2n[nH]c(-c3cccc(S(C)(=O)=O)c3)c12,active: 316 µM
8,Cc1cccc(CS(=O)(=O)c2ncc(Cl)c(C(=O)NCc3ccccc3)n2)c1,"inconclusive: 8.19 µM [inhibitor, partial curve]"
9,Oc1ccc(NCc2ccccc2OCc2ccccc2F)cc1,"inconclusive: 3.26 µM [inhibitor, full curve]"
